# Data published in PubChem BioAssay AID720504 (National Center for Advancing Translational Sciences (NCATS), 2013).
# Sequences of proteins named here, by UniProt entry; tags and fusion partners are left off.
# UniProt P53350, whole entry, looked up: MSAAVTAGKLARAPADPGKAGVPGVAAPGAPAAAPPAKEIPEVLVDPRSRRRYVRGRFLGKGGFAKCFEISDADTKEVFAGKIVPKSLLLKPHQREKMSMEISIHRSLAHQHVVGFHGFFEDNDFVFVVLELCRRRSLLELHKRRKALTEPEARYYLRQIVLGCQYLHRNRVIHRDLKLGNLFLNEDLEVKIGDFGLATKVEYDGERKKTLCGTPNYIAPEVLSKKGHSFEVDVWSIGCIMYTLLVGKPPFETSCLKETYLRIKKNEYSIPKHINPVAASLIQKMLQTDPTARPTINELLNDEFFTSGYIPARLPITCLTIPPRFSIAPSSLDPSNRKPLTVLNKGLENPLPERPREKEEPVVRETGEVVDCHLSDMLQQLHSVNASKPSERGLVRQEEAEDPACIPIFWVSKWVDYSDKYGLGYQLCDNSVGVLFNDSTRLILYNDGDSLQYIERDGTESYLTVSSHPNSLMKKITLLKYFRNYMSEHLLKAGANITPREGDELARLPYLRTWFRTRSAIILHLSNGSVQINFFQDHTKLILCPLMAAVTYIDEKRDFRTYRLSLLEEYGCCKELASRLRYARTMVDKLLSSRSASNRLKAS
# About 10,000 (2.8%) of roughly 360,000 compounds were called active. Inconclusive means that the source gave no clear call. Such entries were picked first, then a sample of the others. Calls follow the shape of the dose curve; as a rule, active = well fitted inhibition curve with a large enough effect; inconclusive = small, poorly fitted or top-dose-only effect; inactive = flat fitted curve, though single readings scatter. Where the call is inconclusive, the potency comes from a doubtful curve fit.
# Biological target: Serine/threonine-protein kinase PLK1 (Homo sapiens) (UniProt P53350)
# Assay: qHTS for Inhibitors of PLK1-PDB (polo-like kinase 1 - polo-box domain): Primary Screen; also: nearly all actives have a fitted effect of over 65% in size; as to max response, negative = inhibition: series mostly up to about 57 µM
# Settings: Plk1 PBD binding of FITC phosphopeptide, fluorescence polarization
# % is scaled to controls: 0 for no effect and ±100 for the full control effect; potency is read from the fitted curve at half-maximal effect.
Structure (SMILES),"max response, negative = inhibition",Potency
COc1ccccc1C(CC(=O)O)NS(=O)(=O)c1ccc2c(c1)N(C(C)=O)CC(C)O2 (configuration not stated),inactive: 4.18%,
Cc1cc(NC(=O)c2ccco2)ccc1NC(=O)c1ccco1,inactive: -13%,
Cc1ccsc1/C=N/n1c(C2CCCCC2)n[nH]c1=S,,"inconclusive: 21.2 µM [inhibitor, partial curve]"
COc1ccc(/C=N/Nc2ncc(Br)cn2)c(OC)c1,,"inconclusive: 23.8 µM [inhibitor, single point]"
CCCN1CCC(NC(=S)Nc2ccc(OC)c(OC)c2)CC1,inactive: -8.34%,
COc1ccc(CC(=O)c2ccc(OC)c(OC)c2)cc1,inactive: 5%,
O=S(=O)(Nc1nc(-c2ccco2)c(-c2ccco2)s1)c1ccc(F)cc1F,,"inconclusive: 26.7 µM [inhibitor, single point]"
Cn1c(=O)c2c(nc(CN3CCOCC3)n2CCN2CCOCC2)n(C)c1=O,,"inconclusive: 23.8 µM [inhibitor, partial curve]"
CC1(C)C2CCC1(CS(=O)(=O)N1CCN(c3ccccc3F)CC1)C(=O)C2 (configuration not stated),inconclusive: -1.48% [inhibitor],
CCCNC(=O)COC(=O)c1cc(C)nc2ccccc12,,"inconclusive: 33.6 µM [inhibitor, single point]"
O=C(Nc1nc2c(s1)CN(Cc1ccccc1)CC2)c1c(F)cccc1F,,active: 21.2 µM
Cc1ccc(NNS(=O)(=O)c2ccc(C)cc2)cc1,,active: 3.77 µM
O=C(NCCc1ccccc1)c1ccc2c(c1)N(Cc1ccccc1)C(=O)CS2=O (configuration not stated),,"inconclusive: 29.9 µM [inhibitor, partial curve]"
CC(Sc1nc2ccccc2s1)C(=O)N(C)Cc1ccccc1 (configuration not stated),,"inconclusive: 26.7 µM [inhibitor, single point]"
CCCOc1ccc(C(CC(=O)O)NC(=O)c2sc3ccccc3c2Cl)cc1 (configuration not stated),inconclusive: -30.1% [inhibitor],
Cc1nnc(SCC(=O)NCc2cccs2)[nH]c1=O,,"inconclusive: 37.7 µM [inhibitor, single point]"
Oc1ccc(C2Nc3cccc4cccc(c34)N2)c(O)c1,,"inconclusive: 37.7 µM [inhibitor, single point]"
Cc1ccc(C(=O)N/N=C/c2cc(Br)ccc2O)cn1,,"inconclusive: 18.9 µM [inhibitor, single point]"
O=C(Nc1ccc(Cl)cc1F)c1ccccc1Br,,"inconclusive: 29.9 µM [inhibitor, partial curve]"
CSc1ccc(/C=C2\C(=N)N3N=C(CC(=O)N4CCOCC4)SC3=NC2=O)cc1,,"inconclusive: 29.9 µM [inhibitor, partial curve]"
CC(C)(C)c1ccc(S(=O)(=O)N2CCSC2)cc1,inactive: -11.1%,
O=C(Nc1cccc2ccccc12)OC1C=CS(=O)(=O)C1 (configuration not stated),inactive: 1.35%,
O=C(CSc1nnc(-c2ccco2)n1CC1CCCO1)c1ccc(F)cc1 (configuration not stated),,active: 2.67 µM
COC(=O)c1cc(S(=O)(=O)N2CCOCC2)ccc1Sc1ccccc1N,,"inconclusive: 26.7 µM [inhibitor, partial curve]"

# Two of the compounds above, with tabs:
Structure (SMILES)	max response, negative = inhibition	Potency
CCCOc1ccc(C(CC(=O)O)NC(=O)c2sc3ccccc3c2Cl)cc1 (configuration not stated)	inconclusive: -30.1% [inhibitor]	
Cc1nnc(SCC(=O)NCc2cccs2)[nH]c1=O		inconclusive: 37.7 µM [inhibitor, single point]

# The list continues:

Structure (SMILES),"max response, negative = inhibition",Potency
O=C(NC1CCCCC1)C1CCCN(S(=O)(=O)c2ccc(F)cc2)C1 (configuration not stated),,"inconclusive: 23.8 µM [inhibitor, single point]"
COc1ccc(CN2C(=O)C(CC(=O)NC(c3ccccc3)c3ccccc3)CC(C(=O)N(C(C)C)C(C)C)=C2C)cc1 (configuration not stated),inactive: -2.95%,
COc1ccc(CN/C(C)=C(/C#N)C(N)=O)cc1OC,,active: 26.7 µM
COc1ccc(Cl)cc1Nc1cc(C)nc2nc(C)nn12,inconclusive: -35.4% [inhibitor],
O=C(Nc1ccccn1)c1ccc2ccccc2c1O,,"inconclusive: 26.7 µM [inhibitor, single point]"
O=C(NCCCN1CCOCC1)C(=O)N/N=C/c1ccccc1,inconclusive: -35.7% [inhibitor],
O=C(NC(=S)Nc1ccc(Cl)c(C(=O)O)c1)c1ccc(OCc2ccccc2)cc1,inconclusive: -31.3% [inhibitor],
COc1ccc(C(C(=O)NCC2CCCO2)N(C(=O)CNC(=O)c2cccs2)c2ccc(NC(C)=O)cc2)cc1OC (configuration not stated),,"inconclusive: 26.7 µM [inhibitor, single point]"
COc1ccc(C(=O)N2CCC(n3c(C)nc4cc(F)ccc43)CC2)cc1,inactive: -0.744%,
CN(C)/C=C1\Cc2ccccc2C1=O,inconclusive: -32.8% [inhibitor],
O=C(O)c1ccc(COc2ccccc2C=C2C(=O)c3ccccc3C2=O)cc1,,active: 0.474 µM
Oc1c(C=Nc2cccc3nsnc23)ccc2ccccc12,,"inconclusive: 23.8 µM [inhibitor, partial curve]"
O=C(O)CN(CC(=O)O)CC(=O)O,,"inconclusive: 29.9 µM [inhibitor, partial curve]"
COc1ccc(CC(=O)Nc2ccc(S(=O)(=O)NCC3CCCO3)cc2)cc1 (configuration not stated),,"inconclusive: 23.8 µM [inhibitor, partial curve]"
COCCCn1c(SCC(=O)NC(C)C)nnc1-c1ccccc1,,active: 7.52 µM
COc1ccc(NC(=O)Cn2ncc(Cl)c(Cl)c2=O)cc1S(=O)(=O)N1CCOCC1,,"inconclusive: 21.2 µM [inhibitor, partial curve]"
COc1ccc(/C=N/Nc2cc(C)nc3c(C)cccc23)cc1,inactive: -0.824%,
CC(SC#N)C(=O)C12CC3CC(CC(C3)C1)C2 (configuration not stated),,"inconclusive: 26.7 µM [inhibitor, single point]"
O=C1CSC(=S)N1c1cccc(Br)c1,,"inconclusive: 29.9 µM [inhibitor, partial curve]"
CC1(C)CC(=O)C(C(=O)/C=C/NCCc2ccccc2)C(=O)C1,inactive: -3.35%,
CCNC(=O)CSc1nnc(-c2cccc(S(=O)(=O)N(CC)CC)c2)n1CCc1ccccc1,,active: 21.2 µM
COc1cc2c[n+](C)c3c4ccccc4ccc3c2cc1OC,inactive: -7.88%,
NC(=O)CC(NC(=O)Cc1ccc(Br)cc1)c1ccc(NCCc2ccccc2F)c([N+](=O)[O-])c1 (configuration not stated),inactive: -8.6%,
